Read-outs that look alike come from different tables or passages of the source.
Assays:
mouse hearts = assay: Ex vivo model of global ischemia and reperfusion injury, Langendorff-perfused mouse hearts (WT and δV1-1 transgenic); conditions: coronary flow 3 mL/minute, n=5
Experimental: Transgenic mice (TG) that selectively express δV1-1 in myocytes were created using α- myosin heavy chain promoter. Hah, H. S., et al., Circ. Res. 91:741-748 (2002). Hemodynamic and morphometric parameters in these transgenic mice, as measured by echocardiographic measurements in vivo, were not different from those measured in wild type mice (WT). Inagaki, K., et al., Circulation 108:869-875 (2003). Mice were heparinized (4000U/kg IP) and anesthetized with sodium pentobarbital (200mg/kg IP). Hearts were perfused with an oxygenated Krebs-Henseleit buffer at 37° C. in a Langendorff system as previously described in Inagaki, K., et al., Circulation 108:869-875 (2003). Hearts were subjected to a 30-minute global ischemia and a 120-minute full reperfusion. […] CPP was measured through a sidearm in the Langendorff system. […]
At the end of the reperfusion, 1 -mm-thick transverse sections of mouse hearts were incubated in triphenyltetrazolium chloride solution (TTC) (1% in phosphate buffer, pH 7.4) at 37° C. for 15 minutes as described in Inagaki, K. et al., Circulation 108:869-875 (2003) to determine the viable myocardium. […] Infarct size was expressed as a percentage of the total area at risk. […] TUNEL-positive nuclei were counted in a total of 1,500 myocytes and 500 of endothelial cells over several random fields.
Data are expressed as mean±SEM. […]

Yorkshire swine = format: in vivo, pig
Experimental: Yorkshire swine (30-45kg) were maintained during the every procedure under anesthesia by inhaled isoflurane (1-2%). A bolus of 300 IU/kg heparin was administered intravenously through the sheath (6 French) placed in the carotid artery. A 10 mm, over-the-wire angioplasty balloon was placed in the left anterior descending artery (LAD) proximal to the first diagonal branch. The balloon was inflated to occlude the LAD for 30 minutes. At the last 1 minute of a 30-minute ischemia, Tat-conjugated δV1-1 (250 ng/kg) or saline was infused at 1 mL/minute for 1 minute through the guide-wire lumen of the balloon catheter (n=9 for each group). Left ventriculogram (LVG) was obtained (40° left anterior oblique projection, 30 frames/sec) to measure cardiac function at 5 time points; before ischemia (baseline), 30 minutes, 24 hours, 5 days, and 10 days after ischemia (n=9 for each group). Ejection fraction (EF) and hypokinetic area were calculated using the software (Plus Plus, Sanders Data System, Calif.) with elimination of frames after premature ventricular contraction beats. Blood pressure and heart rate were measured just before LVG measurements at each time point through the water-filled catheter (Table 1). Coronary flow was measured by a 0.014″ Doppler-tipped guide wire (Flowire, JOMED Inc.) in the LAD, and the unaffected, left circumflex artery (LCx). The wire tip was placed 2 cm distal from the balloon-occluded site in the LAD. After stable baseline flow velocity was recorded, adenosine [endothelium-independent vasodilator; 48 μg; Suryapranata, H., et al., Circulation 89:1109-1117 (1994)] was infused intracoronarily to induce hyperemia (a transient increase in coronary blood flow through microvascular vasodilation) at 5 time points: before ischemia (baseline), 30 minutes, 24 hours, 5 days, and 10 days after ischemia (n=9 for each group). Bradykinin [endothelium-dependent vaodilator, 0.2ml of a 3×10^−6M in saline; Rodriguez-Sinovas, A., et al., J. Appl. Physiol. 95:81-88 (2003)] was also infused intracoronary before ischemia and 24 hours after reperfusion (n=6 for each group). Coronary flow reserve was calculated by dividing the average peak velocity (APV) at hyperemic phase by the baseline APV as described in Suryapranata, H., et al., Circulation 89:1109-1117 (1994). After reperfusion, to determine the area at risk in porcine hearts, LAD ligation was performed at the balloon-occluded site and Evan's Blue (0.0025%) was perfused as previously described in Inagaki, K., et al., Circulation 2304-2307 (2003). All other methods were performed as described in Example 1.

Question: How did the “initial coronary perfusion pressure” value (mouse hearts; TG+δV1-1 group) turn out when “δV1-1: δPKC inhibitor peptide, SEQ ID NO:1 (SFNSYELGSL), amino acids 8-17 of rat δPKC; used Tat-conjugated in the examples (Tat conjugate in examples; listed as Rattus norvegicus)” was run?
Answer: 64.6±5.4 mmHg

Question: And the “initial coronary perfusion pressure” value (mouse hearts; WT+δV1-1 group)?
Answer: 61.0±4.6 mmHg

Question: And the “BP (Dia)” value (Yorkshire swine; 30 min R)?
Answer: 57 ± 3 mmHg

Question: What about the “BP (Sys)” value (Yorkshire swine; 30 min R) of the same substance?
Answer: 87 ± 4 mmHg

Question: And the HR (Yorkshire swine; 30 min R (reperfusion))?
Answer: 90 ± 3 bpm

Question: And the “BP (Dia)” value (Yorkshire swine; 24 hr R)?
Answer: 66 ± 13 mmHg

Question: And the “BP (Sys)” value (Yorkshire swine; 24 hr R)?
Answer: 101 ± 8 mmHg

Question: And the HR (Yorkshire swine; 24 hr R)?
Answer: 103 ± 11 bpm

Question: And the “BP (Dia)” value (Yorkshire swine; 5 days R)?
Answer: 68 ± 3 mmHg

Question: And the “BP (Sys)” value (Yorkshire swine; 5 days R)?
Answer: 97 ± 5 mmHg

Question: And the HR (Yorkshire swine; 5 days R)?
Answer: 98 ± 6 bpm

Question: What about the “BP (Dia)” value (Yorkshire swine; 10 days R) of the same substance?
Answer: 60 ± 3 mmHg

Question: What about the “BP (Sys)” value (Yorkshire swine; 10 days R) of the same substance?
Answer: 94 ± 6 mmHg

Question: And the HR (Yorkshire swine; 10 days R)?
Answer: 90 ± 7 bpm

From patent US20090186814A1, “Methods and Compositions for Reducing Ischemia-Derived Microvascular Damage” (priority 2005, published 2009)
